From article PMC9561260
No constants are given. Whether binding was seen depends on the method and setting. Binding seen in cells or lysates may run through a third protein. These calls come from enrichment with a bait or labelling near it, and not all partners need be listed. Sequences can lack the tags named with a protein. One block for each molecule: values may come before it.

Amino acid sequences for entries named in this document (tags omitted).
UniProt P42224: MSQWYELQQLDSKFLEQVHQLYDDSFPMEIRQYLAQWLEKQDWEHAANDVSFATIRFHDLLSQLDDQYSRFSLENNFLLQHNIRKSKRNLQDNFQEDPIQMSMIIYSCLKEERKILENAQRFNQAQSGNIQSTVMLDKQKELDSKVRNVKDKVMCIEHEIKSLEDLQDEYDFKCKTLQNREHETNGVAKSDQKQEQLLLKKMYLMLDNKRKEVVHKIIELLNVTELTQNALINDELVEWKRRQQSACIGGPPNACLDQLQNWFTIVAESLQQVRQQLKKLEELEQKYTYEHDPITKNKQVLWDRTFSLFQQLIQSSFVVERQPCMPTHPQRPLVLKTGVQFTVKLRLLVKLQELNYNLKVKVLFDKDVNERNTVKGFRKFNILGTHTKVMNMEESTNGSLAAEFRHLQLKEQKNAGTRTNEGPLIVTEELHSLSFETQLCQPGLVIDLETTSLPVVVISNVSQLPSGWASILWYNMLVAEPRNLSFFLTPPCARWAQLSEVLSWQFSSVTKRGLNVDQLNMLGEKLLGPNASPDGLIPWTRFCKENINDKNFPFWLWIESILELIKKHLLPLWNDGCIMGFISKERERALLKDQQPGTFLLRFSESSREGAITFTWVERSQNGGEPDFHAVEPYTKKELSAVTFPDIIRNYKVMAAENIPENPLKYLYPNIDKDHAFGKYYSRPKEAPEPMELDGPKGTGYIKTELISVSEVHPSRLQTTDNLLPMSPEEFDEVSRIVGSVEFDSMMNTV
UniProt O14776: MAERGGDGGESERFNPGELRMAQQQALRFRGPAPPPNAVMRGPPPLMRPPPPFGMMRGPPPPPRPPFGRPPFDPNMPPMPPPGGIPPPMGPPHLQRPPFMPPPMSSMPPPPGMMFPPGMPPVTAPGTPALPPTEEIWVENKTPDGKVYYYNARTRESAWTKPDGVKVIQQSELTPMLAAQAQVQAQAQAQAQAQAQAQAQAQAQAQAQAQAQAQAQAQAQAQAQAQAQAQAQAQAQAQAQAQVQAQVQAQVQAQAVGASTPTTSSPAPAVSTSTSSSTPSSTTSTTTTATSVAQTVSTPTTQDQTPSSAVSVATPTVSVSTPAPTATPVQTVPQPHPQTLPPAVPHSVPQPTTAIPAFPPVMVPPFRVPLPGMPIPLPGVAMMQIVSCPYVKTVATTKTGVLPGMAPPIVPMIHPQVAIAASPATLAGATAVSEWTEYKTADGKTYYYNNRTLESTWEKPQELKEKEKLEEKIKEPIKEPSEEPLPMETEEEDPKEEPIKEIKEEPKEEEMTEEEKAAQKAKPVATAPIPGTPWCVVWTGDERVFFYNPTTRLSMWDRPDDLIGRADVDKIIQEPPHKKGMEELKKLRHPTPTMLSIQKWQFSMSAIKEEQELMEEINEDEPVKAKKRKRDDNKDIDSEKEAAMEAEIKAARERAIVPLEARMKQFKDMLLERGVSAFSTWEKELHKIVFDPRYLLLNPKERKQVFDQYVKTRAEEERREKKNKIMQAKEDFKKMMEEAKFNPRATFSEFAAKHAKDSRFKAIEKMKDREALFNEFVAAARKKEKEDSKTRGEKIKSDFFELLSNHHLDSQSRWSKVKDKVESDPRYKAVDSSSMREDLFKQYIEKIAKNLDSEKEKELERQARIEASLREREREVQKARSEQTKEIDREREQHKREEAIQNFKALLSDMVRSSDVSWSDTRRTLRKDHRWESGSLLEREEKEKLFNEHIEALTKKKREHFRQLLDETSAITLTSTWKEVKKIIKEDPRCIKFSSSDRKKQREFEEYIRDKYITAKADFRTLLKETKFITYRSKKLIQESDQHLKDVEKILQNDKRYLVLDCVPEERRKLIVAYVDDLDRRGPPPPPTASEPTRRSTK
UniProt Q8WUM4: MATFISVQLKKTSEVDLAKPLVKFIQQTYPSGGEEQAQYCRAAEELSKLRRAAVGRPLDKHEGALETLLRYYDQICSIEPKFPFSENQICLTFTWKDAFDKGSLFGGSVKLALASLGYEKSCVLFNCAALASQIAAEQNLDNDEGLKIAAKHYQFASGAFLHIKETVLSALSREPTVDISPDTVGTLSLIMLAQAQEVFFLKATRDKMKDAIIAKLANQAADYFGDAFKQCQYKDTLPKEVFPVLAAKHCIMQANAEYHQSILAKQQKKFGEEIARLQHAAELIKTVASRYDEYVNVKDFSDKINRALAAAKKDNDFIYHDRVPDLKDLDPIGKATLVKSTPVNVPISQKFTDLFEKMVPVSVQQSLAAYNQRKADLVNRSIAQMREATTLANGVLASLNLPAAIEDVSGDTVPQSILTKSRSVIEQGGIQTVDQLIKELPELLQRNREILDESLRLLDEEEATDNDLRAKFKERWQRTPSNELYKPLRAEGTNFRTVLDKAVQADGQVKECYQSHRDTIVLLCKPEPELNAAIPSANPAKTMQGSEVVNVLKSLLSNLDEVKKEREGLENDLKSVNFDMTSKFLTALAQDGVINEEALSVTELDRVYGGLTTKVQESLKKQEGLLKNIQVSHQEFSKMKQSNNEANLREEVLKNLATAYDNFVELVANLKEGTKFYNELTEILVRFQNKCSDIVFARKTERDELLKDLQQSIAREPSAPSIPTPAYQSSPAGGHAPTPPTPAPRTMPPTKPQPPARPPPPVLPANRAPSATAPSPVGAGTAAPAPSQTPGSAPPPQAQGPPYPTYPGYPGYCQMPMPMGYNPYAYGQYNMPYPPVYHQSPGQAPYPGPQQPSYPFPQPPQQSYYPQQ
UniProt O60216: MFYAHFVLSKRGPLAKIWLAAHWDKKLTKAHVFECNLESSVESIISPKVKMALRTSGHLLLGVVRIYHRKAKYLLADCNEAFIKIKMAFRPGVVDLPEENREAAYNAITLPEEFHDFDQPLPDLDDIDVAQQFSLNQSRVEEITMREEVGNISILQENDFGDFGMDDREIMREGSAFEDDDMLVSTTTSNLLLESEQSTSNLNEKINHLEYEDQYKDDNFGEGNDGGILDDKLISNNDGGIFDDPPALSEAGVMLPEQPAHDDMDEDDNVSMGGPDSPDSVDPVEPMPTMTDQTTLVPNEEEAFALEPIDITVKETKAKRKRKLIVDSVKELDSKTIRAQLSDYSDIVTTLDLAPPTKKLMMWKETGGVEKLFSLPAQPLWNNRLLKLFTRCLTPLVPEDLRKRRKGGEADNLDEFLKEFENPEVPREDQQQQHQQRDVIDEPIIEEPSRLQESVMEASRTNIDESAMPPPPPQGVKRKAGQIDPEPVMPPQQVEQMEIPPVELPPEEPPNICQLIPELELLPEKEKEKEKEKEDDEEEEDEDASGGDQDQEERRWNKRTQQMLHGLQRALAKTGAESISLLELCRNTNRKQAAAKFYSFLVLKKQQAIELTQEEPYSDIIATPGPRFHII
UniProt P35226: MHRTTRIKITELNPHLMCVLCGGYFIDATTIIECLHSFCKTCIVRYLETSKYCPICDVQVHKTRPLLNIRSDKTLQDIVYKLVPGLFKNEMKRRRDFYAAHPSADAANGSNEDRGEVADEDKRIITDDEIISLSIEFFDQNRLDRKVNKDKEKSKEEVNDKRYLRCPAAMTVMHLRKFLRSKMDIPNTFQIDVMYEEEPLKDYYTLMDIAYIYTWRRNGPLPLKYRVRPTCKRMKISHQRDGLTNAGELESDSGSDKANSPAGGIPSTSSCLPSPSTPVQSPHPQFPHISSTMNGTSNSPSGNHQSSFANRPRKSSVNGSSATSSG
UniProt Q9UJA3: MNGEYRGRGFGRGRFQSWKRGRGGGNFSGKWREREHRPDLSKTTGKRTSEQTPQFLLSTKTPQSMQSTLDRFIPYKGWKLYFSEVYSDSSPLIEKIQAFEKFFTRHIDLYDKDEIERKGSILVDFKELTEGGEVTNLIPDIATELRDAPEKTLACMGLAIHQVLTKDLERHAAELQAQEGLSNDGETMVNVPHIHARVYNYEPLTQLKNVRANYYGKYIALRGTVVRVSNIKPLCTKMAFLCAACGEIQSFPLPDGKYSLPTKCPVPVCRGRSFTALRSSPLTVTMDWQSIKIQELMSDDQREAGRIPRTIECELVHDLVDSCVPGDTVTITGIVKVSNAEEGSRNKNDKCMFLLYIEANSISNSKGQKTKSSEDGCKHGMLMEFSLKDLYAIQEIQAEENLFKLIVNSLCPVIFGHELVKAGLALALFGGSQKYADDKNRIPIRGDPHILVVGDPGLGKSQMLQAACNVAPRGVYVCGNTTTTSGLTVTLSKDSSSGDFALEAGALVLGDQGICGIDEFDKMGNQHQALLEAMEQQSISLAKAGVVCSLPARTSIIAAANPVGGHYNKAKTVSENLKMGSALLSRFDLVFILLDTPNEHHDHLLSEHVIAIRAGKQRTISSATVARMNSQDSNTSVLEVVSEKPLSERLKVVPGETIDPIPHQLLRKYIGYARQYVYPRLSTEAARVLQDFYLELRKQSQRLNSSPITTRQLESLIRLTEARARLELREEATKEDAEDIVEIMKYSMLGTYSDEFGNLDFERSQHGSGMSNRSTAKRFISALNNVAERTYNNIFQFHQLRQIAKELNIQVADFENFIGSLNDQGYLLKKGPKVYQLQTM
UniProt Q13547: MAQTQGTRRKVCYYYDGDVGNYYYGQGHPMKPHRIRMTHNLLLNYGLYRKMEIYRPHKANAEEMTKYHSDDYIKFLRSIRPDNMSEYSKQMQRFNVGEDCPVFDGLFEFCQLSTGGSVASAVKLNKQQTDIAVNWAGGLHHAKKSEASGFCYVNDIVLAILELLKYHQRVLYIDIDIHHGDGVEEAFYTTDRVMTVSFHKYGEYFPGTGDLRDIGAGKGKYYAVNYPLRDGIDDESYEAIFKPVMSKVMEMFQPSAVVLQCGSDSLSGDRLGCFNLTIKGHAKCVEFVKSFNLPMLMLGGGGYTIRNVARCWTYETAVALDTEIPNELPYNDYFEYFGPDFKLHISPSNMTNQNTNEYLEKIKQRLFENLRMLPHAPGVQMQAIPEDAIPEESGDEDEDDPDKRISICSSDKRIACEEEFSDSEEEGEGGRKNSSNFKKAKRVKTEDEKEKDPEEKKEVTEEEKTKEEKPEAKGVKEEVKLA
UniProt Q09028: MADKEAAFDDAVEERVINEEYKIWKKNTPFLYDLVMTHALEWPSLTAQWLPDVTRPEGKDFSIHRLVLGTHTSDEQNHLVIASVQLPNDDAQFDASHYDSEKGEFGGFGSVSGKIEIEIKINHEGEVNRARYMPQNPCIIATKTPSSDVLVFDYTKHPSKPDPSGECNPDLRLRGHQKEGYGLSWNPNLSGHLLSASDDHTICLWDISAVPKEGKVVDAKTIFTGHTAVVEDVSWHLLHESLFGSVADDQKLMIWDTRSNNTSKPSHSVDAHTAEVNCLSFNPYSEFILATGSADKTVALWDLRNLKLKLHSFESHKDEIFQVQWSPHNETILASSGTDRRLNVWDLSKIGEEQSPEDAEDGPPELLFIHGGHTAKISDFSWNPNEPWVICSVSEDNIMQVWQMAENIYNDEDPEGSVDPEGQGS
UniProt Q5JVF3: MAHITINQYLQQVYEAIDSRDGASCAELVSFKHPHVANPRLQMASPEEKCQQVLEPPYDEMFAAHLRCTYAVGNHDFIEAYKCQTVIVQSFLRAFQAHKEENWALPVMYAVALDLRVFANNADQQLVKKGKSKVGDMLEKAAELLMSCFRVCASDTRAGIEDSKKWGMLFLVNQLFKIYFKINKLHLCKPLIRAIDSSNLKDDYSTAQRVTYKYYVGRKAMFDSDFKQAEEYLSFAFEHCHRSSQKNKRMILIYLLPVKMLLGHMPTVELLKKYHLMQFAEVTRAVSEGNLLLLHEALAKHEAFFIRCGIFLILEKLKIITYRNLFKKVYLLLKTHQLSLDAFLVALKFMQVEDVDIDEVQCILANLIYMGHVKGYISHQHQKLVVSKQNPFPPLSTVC
UniProt A8K4T8: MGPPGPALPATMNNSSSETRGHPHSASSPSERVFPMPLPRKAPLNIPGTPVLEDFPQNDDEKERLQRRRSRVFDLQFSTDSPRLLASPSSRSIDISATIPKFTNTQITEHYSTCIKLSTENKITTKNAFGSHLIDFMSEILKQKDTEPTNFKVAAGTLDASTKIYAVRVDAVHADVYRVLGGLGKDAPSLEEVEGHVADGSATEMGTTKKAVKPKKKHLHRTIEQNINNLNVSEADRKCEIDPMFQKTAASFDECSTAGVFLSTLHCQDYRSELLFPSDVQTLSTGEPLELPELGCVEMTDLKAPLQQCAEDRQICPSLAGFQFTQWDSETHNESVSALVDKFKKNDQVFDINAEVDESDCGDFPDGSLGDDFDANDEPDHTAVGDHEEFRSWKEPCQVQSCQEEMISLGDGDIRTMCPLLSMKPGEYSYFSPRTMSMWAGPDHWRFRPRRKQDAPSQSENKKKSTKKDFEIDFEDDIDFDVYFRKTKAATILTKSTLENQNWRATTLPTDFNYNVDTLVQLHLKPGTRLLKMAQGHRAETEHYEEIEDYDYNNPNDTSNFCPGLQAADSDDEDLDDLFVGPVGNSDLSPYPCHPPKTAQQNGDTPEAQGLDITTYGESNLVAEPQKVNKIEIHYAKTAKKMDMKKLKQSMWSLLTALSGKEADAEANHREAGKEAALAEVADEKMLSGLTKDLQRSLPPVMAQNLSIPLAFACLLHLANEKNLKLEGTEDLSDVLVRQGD

Target: T1, 2× HA-3× FLAG-Eya1 (UniProt P97767)
T1 sequence: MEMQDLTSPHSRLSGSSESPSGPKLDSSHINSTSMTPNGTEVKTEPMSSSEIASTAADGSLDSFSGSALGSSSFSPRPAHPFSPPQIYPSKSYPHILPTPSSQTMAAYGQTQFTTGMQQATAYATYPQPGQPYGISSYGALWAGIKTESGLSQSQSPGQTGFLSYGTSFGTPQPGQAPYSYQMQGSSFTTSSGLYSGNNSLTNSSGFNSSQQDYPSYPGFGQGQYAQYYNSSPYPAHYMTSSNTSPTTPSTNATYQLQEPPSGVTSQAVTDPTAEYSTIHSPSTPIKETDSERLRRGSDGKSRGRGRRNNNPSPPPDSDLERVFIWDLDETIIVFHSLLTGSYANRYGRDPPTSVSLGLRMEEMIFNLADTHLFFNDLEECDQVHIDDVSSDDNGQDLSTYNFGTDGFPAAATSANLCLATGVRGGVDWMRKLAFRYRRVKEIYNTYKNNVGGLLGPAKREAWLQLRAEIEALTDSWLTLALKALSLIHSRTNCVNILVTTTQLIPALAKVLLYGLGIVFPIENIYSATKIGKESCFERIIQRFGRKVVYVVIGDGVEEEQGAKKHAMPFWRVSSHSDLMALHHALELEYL
Assay: affinity purification with mass spectrometry; tandem purification of HF-Eya1 from lysate of stable HEK293 cells: anti-FLAG M2 beads, FLAG peptide elution, then anti-HA agarose; 50 mM Tris-HCl pH 7.5, 150 mM NaCl, 0.1% Nonidet P-40, 4°C; 12 bands (B1-B12) cut from a silver-stained gel

binding: binds
Molecule: signal transducer and activator STAT1 (from UniProt P42224 1-750)

binding: binds
Molecule: Sp1 (from UniProt P08047 1-785)

binding: binds
Molecule: transcription elongation regulator TCERG1 (from UniProt O14776 1-1098)

Molecule: PDCD6IP (programmed cell death 6-interacting protein) (from UniProt Q8WUM4 1-868)
binding: binds

binding: binds
Molecule: SMC3 (from UniProt Q9UQE7 1-1217)

binding: binds
Molecule: RAD50 (from UniProt Q92878 1-1312)

binding: binds
Molecule: SMC2 (from UniProt O95347 1-1197)

binding: binds
Molecule: RAD21 (double-strand-break repair protein) (from UniProt O60216 1-631)

binding: binds
Molecule: MSH3 (from UniProt P20585 1-1137)

binding: binds
Molecule: BMI1 (from UniProt P35226 1-326)

binding: binds
Molecule: RPTOR (mTOR associated regulatory protein) (from UniProt Q8N122 1-1335)

binding: binds
Molecule: MCM8 (from UniProt Q9UJA3 1-840)

binding: binds
Molecule: HDAC1 (histone deacetylase 1) (from UniProt Q13547 1-482)

binding: binds
Molecule: MSH6 (from UniProt P52701 1-1360)

binding: binds
Molecule: RBBP4 (from UniProt Q09028 1-425)

Molecule: PCID2 (cell survival and cell-cycle) (from UniProt Q5JVF3 1-399)
binding: binds

binding: binds
Molecule: Condensin complex subunit 2 (from UniProt A8K4T8 1-741)

binding: binds
Molecule: CHTF18 (chromosome cohesion factor) (from UniProt Q8WVB6-2 1-1003)

binding: binds
Molecule: signal transducer and activator STAT3 (from UniProt P40763 1-770)

binding: binds
B1: ZNF281 (protein, UniProt Q9Y2X9 1-895)
chain: MKIGSGFLSGGGGTGSSGGSGSGGGGSGGGGGGGSSGRRAEMEPTFPQGMVMFNHRLPPVTSFTRPAGSAAPPPQCVLSSSTSAAPAAEPPPPPAPDMTFKKEPAASAAAFPSQRTSWGFLQSLVSIKQEKPADPEEQQSHHHHHHHHYGGLFAGAEERSPGLGGGEGGSHGVIQDLSILHQHVQQQPAQHHRDVLLSSSSRTDDHHGTEEPKQDTNVKKAKRPKPESQGIKAKRKPSASSKPSLVGDGEGAILSPSQKPHICDHCSAAFRSSYHLRRHVLIHTGERPFQCSQCSMGFIQKYLLQRHEKIHSREKPFGCDQCSMKFIQKYHMERHKRTHSGEKPYKCDTCQQYFSRTDRLLKHRRTCGEVIVKGATSAEPGSSNHTNMGNLAVLSQGNTSSSRRKTKSKSIAIENKEQKTGKTNESQISNNINMQSYSVEMPTVSSSGGIIGTGIDELQKRVPKLIFKKGSRKNTDKNYLNFVSPLPDIVGQKSLSGKPSGSLGIVSNNSVETIGLLQSTSGKQGQISSNYDDAMQFSKKRRYLPTASSNSAFSINVGHMVSQQSVIQSAGVSVLDNEAPLSLIDSSALNAEIKSCHDKSGIPDEVLQSILDQYSNKSESQKEDPFNIAEPRVDLHTSGEHSELVQEENLSPGTQTPSNDKASMLQEYSKYLQQAFEKSTNASFTLGHGFQFVSLSSPLHNHTLFPEKQIYTTSPLECGFGQSVTSVLPSSLPKPPFGMLFGSQPGLYLSALDATHQQLTPSQELDDLIDSQKNLETSSAFQSSSQKLTSQKEQKNLESSTGFQIPSQELASQIDPQKDIEPRTTYQIENFAQAFGSQFKSGSRVPMTFITNSNGEVDHRVRTSVSDFSGYTNMMSDVSEPCSTRVKTPTSQSYR

binding: binds
B2: highly divergent homeobox protein HDX (protein, UniProt Q7Z353 1-690)
chain: MNLRSVFTVEQQRILQRYYENGMTNQSKNCFQLILQCAQETKLDFSVVRTWVGNKRRKMSSKNSESGTATTGTSLSAPDITVRNVVNIARPSSQQSSWTSANNDVIVTGIYSPASSSSRQGTNKHTDTQITEAHKIPIQKTATKNDTEFQLHIPVQRQVAHCKNASLLLGEKTIILSRQTSVLNAGNSVFNHAKKNYGNSSVQASEMTVPQKPSVCHRPCKIEPVGIQRSYKPEHTGPALHNLCGQKPTIRDPYCRTQNLEIREVFSLAVSDYPQRILGGNAPQKPSSAEGNCLSIAMETGDAEDEYAREEELASMRAQIPSYSRFYESGSSLRAENQSTTLPGPGRNMPNSQMVNIRDMSDNVLYQNRNYHLTPRTSLHTASSTMYSNTNPLRSNFSPHFASSNQLRLSQNQNNYQISGNLTVPWITGCSRKRALQDRTQFSDRDLATLKKYWDNGMTSLGSVCREKIEAVATELNVDCEIVRTWIGNRRRKYRLMGIEVPPPRGGPADFSEQPESGSLSALTPGEEAGPEVGEDNDRNDEVSICLSEGSSQEEPNEVVPNDARAHKEEDHHAVTTDNVKIEIIDDEESDMISNSEVEQVNSFLDYKNEEVKFIENELEIQKQKYFKLQTFVRSLILAMKADDKEQQQALLSDLPPELEEMDFNHASLEPDDTSFSVSSLSEKNVSESL

binding: binds
B3: ZNF622 (protein, UniProt Q969S3 1-477)
chain: MATYTCITCRVAFRDADMQRAHYKTDWHRYNLRRKVASMAPVTAEGFQERVRAQRAVAEEESKGSATYCTVCSKKFASFNAYENHLKSRRHVELEKKAVQAVNRKVEMMNEKNLEKGLGVDSVDKDAMNAAIQQAIKAQPSMSPKKAPPAPAKEARNVVAVGTGGRGTHDRDPSEKPPRLQWFEQQAKKLAKQQEEDSEEEEEDLDGDDWEDIDSDEELECEDTEAMDDVVEQDAEEEEAEEGPPLGAIPITDCLFCSHHSSSLMKNVAHMTKDHSFFIPDIEYLSDIKGLIKYLGEKVGVGKICLWCNEKGKSFYSTEAVQAHMNDKSHCKLFTDGDAALEFADFYDFRSSYPDHKEGEDPNKAEELPSEKNLEYDDETMELILPSGARVGHRSLMRYYKQRFGLSRAVAVAKNRKAVGRVLQQYRALGWTGSTGAALMRERDMQYVQRMKSKWMLKTGMKNNATKQMHFRVQVRF

binding: binds
B4: RFX/X-box TF RFX1 (protein, UniProt P22670 1-979)
chain: MATQAYTELQAAPPPSQPPQAPPQAQPQPPPPPPPAAPQPPQPPTAAATPQPQYVTELQSPQPQAQPPGGQKQYVTELPAVPAPSQPTGAPTPSPAPQQYIVVTVSEGAMRASETVSEASPGSTASQTGVPTQVVQQVQGTQQRLLVQTSVQAKPGHVSPLQLTNIQVPQQALPTQRLVVQSAAPGSKGGQVSLTVHGTQQVHSPPEQSPVQANSSSSKTAGAPTGTVPQQLQVHGVQQSVPVTQERSVVQATPQAPKPGPVQPLTVQGLQPVHVAQEVQQLQQVPVPHVYSSQVQYVEGGDASYTASAIRSSTYSYPETPLYTQTASTSYYEAAGTATQVSTPATSQAVASSGSMPMYVSGSQVVASSTSTGAGASNSSGGGGSGGGGGGGGGGGGGGSGSTGGGGSGAGTYVIQGGYMLGSASQSYSHTTRASPATVQWLLDNYETAEGVSLPRSTLYCHYLLHCQEQKLEPVNAASFGKLIRSVFMGLRTRRLGTRGNSKYHYYGLRIKASSPLLRLMEDQQHMAMRGQPFSQKQRLKPIQKMEGMTNGVAVGQQPSTGLSDISAQVQQYQQFLDASRSLPDFTELDLQGKVLPEGVGPGDIKAFQVLYREHCEAIVDVMVNLQFTLVETLWKTFWRYNLSQPSEAPPLAVHDEAEKRLPKAILVLLSKFEPVLQWTKHCDNVLYQGLVEILIPDVLRPIPSALTQAIRNFAKSLESWLTHAMVNIPEEMLRVKVAAAGAFAQTLRRYTSLNHLAQAARAVLQNTAQINQMLSDLNRVDFANVQEQASWVCRCEDRVVQRLEQDFKVTLQQQNSLEQWAAWLDGVVSQVLKPYQGSAGFPKAAKLFLLKWSFYSSMVIRDLTLRSAASFGSFHLIRLLYDEYMYYLIEHRVAQAKGETPIAVMGEFANLATSLNPLDPDKDEEEEEEEESEDELPQDISLAAGGESPALGPETLEPPAKLARTDARGLFVQALPSS
